Data taken from PMC3289644.
These are yes or no findings as the source states them, for the method shown.

Sequences of proteins named here, by UniProt entry; tags and fusion partners are left off. A change or cut given only in a name is not applied to a line headed by its entry. A line that says so, or that is headed by a name, gives the form on record, which may keep a tag or linker.
Recombinant FH19–20 (complement factor H, CCP modules 19–20) (P08603, form named): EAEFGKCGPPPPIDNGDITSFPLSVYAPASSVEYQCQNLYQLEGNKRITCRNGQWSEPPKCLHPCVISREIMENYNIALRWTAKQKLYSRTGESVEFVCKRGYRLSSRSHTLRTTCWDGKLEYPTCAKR

Target: Recombinant FH19–20 (complement factor H, CCP modules 19–20) (human) (UniProt P08603)
Test: condition: 2.4, 4.6 and 7.9 mg/ml; merged data extrapolated to infinite dilution; small-angle X-ray scattering (SAXS); protein alone in solution, 20°C, PBS pH 7.4, 1 mM DTT; 1.9, 3.8 and 7.6 mg/ml (FH18–20), 2.4, 4.6 and 7.9 mg/ml (FH19–20); MW from I(0) of merged data extrapolated to infinite dilution, and from particle volumes; both purified

binding: no binding
Substance: Recombinant FH19–20 (complement factor H, CCP modules 19–20) (from UniProt P08603 1107-1231) (domain or fragment)
